# Laboratory results published in patent publication US20090317376A1, “Compositions And Methods For Lipo Modeling” (Georgetown University MEDICAL SCHOOL, priority 2005, published 2009).
# “Also recorded” adds a separate entry of the source. At least one compound was matched to its structure with a doubt left.
# Test system: SK-N-BE(2) neuroblastoma cells
# Test: NPY and TH expression in neuroblastoma cells (real-time RT-PCR)
# Format: cell-based
# Conditions: dexamethasone 10 μM, 24 hrs
smiles,measurement,value
C[C@@H]1C[C@H]2[C@@H]3CCC4=CC(=O)C=C[C@]4(C)[C@@]3(F)[C@@H](O)C[C@]2(C)[C@@]1(O)C(=O)CO [dexamethasone],NPY expression in neuroblastoma cells,markedly up-regulated; also recorded: favors NPY expression
same,tyrosine hydroxylase (TH) mRNA in neuroblastoma cells,decreased
